PubChem BioAssay AID504784, Drosophila RNAi Screening Center | 2011

Aim: 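Fly genes whose silencing alters how much lipid cells keep in droplets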 (primary screen)
System: Drosophila Kc167 embryonic cells
Knock-down reagent: long dsRNA against Drosophila genes, about 250 ng dsRNA per well
Time to read-out: 4 days
Conditions: cells fed 400 µM oleic acid bound to BSA
Read-out: 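Microscope images give a droplet-to-nucleus area ratio, taken as log and converted to a screen-wide B-score; higher values mean greater lipid storage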
Scale: droplet/nuclear area B-score: higher = more stored lipid (overstorage)
The deposit covers about 17,000 reagents; shown is an unselected part of those with a known target gene and a result. 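Each column is one replicate's B-score; the combined score over replicates was not deposited, so single values may mislead.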 The numbers tell different reagents against one gene apart. Names joined by + are all predicted targets of the reagent.

no.	target gene	dsRNA no.	droplet/nuclear area B-score, replicate 1	droplet/nuclear area B-score, replicate 2	droplet/nuclear area B-score, replicate 3
1	CG11068 (GeneID 32357)	1	1.81	0.559	
2	Aldh (GeneID 34256)	1	-0.118	-2.25	
3	CG6465 (GeneID 41274)	1	-0.223	-0.0132	
4	flfl (GeneID 41675)	1	-7.48	-3.9	
5	pkm (GeneID 32108)	1	0.00208	0.446	-0.134
6	CG11977 (GeneID 41076)	1	-1.59	1.54	
7	ETHR (GeneID 42523)	1	-3	1.56	
8	CG13360 (GeneID 31025)	1	3.26	-0.00339	-0.956
9	Ubc87F (GeneID 41682)	1	0.0662	0.759	
10	b6 (GeneID 31124)	1	-1.14	-1.27	
11	alpha-Est3 (GeneID 40907)	1	-2.89	-0.804	
12	png (GeneID 31084)	1	1.38	0.537	
13	soti (GeneID 41748)	1	-0.0788	0.879	
14	CG31760 (GeneID 34642)	1	3.04	0.569	
15	CG6700 (GeneID 34496)	1	-2.06	-1.6	
16	CG9631 (GeneID 41729)	1	0.139	-5.51	
17	hrg (GeneID 49636)	1	0.565	-1.78	
18	mof (GeneID 31518)	1	0.0313	0.135	
19	CG7882 (GeneID 35520)	1	-0.243	0.0184	
20	CG5800 (GeneID 32742)	1	-0.648	-0.29	
21	CG7135 (GeneID 32793)	1	-0.236	-3.2	
22	inc (GeneID 31110)	1	0.847	1.19	
23	inc (GeneID 31110)	2	0.669	-0.688	-1.74
24	CG6425 (GeneID 43216)	1	0.338		
25	Tbc1d8-9 (GeneID 40361)	1	-0.00509	-1.12	1.11
26	CG13046 (GeneID 39791)	1	-0.917	-0.473	
27	CG3251 (GeneID 33671)	1	-0.653	-0.4	
28	Grl58a (GeneID 37509)	1	-0.847	-0.0402	
29	ras (GeneID 43873)	1	-0.443	1.08	2.21
30	CG1105 (GeneID 40841)	1	1.58	-0.00648	
31	RpS15Ab + RpS15Aa	1	-0.711	2.11	
32	RpS15Ab + RpS15Aa	2	-1.4	0.795	4.34
33	CG6231 (GeneID 42339)	1	-0.0915	-4.09	
34	Psf1 (GeneID 38136)	1	-0.785	2.16	0.232
35	CG14947 (GeneID 34628)	1	-0.957	1.06	
36	simj (GeneID 39212)	1	-0.0571	1.14	
37	CG9313 (GeneID 37374)	1	-0.508	-0.0965	
38	Pex5 (GeneID 31141)	1	0.664	-1.58	
39	spir (GeneID 45931)	1	-1.02	0.725	
40	CG42594 (GeneID 8674091)	1	-4.34	-3.12	
41	CG42594 (GeneID 8674091)	2	0.0678	-0.0562	
42	CG42594 (GeneID 8674091)	3	-1.27	0.905	
43	unc-45 (GeneID 44910)	1	1.38	0.992	
44	CG42240 (GeneID 7354471)	1	-0.399	-0.809	1.49
45	CG18371 (GeneID 36556)	1	2.57	-0.318	
46	CG32032 (GeneID 192535)	1	0.0548	-0.688	
47	CG6805 (GeneID 36911)	1	0.0776	-0.444	
48	mura (GeneID 41145)	1	1.77	0.887	
49	mura (GeneID 41145)	2	1.09	0	
50	mura (GeneID 41145)	3	-0.261	0.0892	
51	dachs (GeneID 34179)	1	-4.68	0.449	
52	dachs (GeneID 34179)	2	1.38	-1.81	
53	CG3557 (GeneID 33426)	1	0.325	1.86	
54	Hr39 (GeneID 35398)	1	-0.121	-1.22	
55	Cpr47Ee (GeneID 36193)	1	0.731	-3	
56	Cpr47Ee (GeneID 36193)	2	-0.686	0.0871	
57	CG9399 (GeneID 41157)	1	-2.03	-1.18	
58	Or22b (GeneID 33336)	1	-0.535	-1.86	
59	blp (GeneID 41937)	1	-0.16	-1.14	
60	Marf1 (GeneID 49895)	1	1.08	0.562	
61	Marf1 (GeneID 49895)	2	0.0286	1.46	
62	Pepck2 (GeneID 37130)	1	-0.0638	-0.332	
63	CG12374 (GeneID 36410)	1	-0.295	-0.00238	
64	CG3841 (GeneID 34278)	1	-1.11	-1.07	
65	Tcs4 (GeneID 32982)	1	0.328	-0.478	
66	AcCoAS (GeneID 40348)	1	2.33	2.65	
67	AcCoAS (GeneID 40348)	2	3.77	0.312	-0.276
68	AcCoAS (GeneID 40348)	3	-0.215	1.03	
69	CG13312 (GeneID 39010)	1	-1.6	-1.5	
70	Notum (GeneID 39751)	1	1.86	1.28	
71	CG2818 (GeneID 33597)	1	-0.424	-0.682	
72	Clamp (GeneID 35445)	1	0.0881	1.12	
73	Clamp (GeneID 35445)	2	-1.48	3.79	
74	Andorra (GeneID 32798)	1	0.668	1.5	
75	CG7519 (GeneID 40377)	1	0.309	1.28	
76	CG16896 (GeneID 37977)	1	-1.13	0.00793	
77	inaE (GeneID 32343)	1	-0.156	-0.561	
78	inaE (GeneID 32343)	2	-0.829	1.5	-1.11
79	inaE (GeneID 32343)	3	0.531	-1.1	0.0789
80	inaE (GeneID 32343)	4	0.876	-0.0166	
81	bbx + waw	1	-1.33	0.0245	
82	bbx + waw	2	2.71	-0.966	
83	yki (GeneID 37851)	1	-1.16	-1.72	
84	spd-2 (GeneID 39850)	1	-0.00221	-0.55	-1.36
85	mRpS14 (GeneID 117414)	1	2.31	0.174	
86	mars (GeneID 36498)	1	-0.925	0.337	-0.704
87	Lhr (GeneID 36957)	1	-3.17	-0.195	
88	RpL7A (GeneID 31588)	1	1.69	3.09	
89	mRRF2 (GeneID 42670)	1	-1.39	1.56	
90	CG18810 (GeneID 59171)	1	0.468	-0.095	
91	mRpL50 (GeneID 38796)	1	2.71	-1.2	1.73
92	CG13117 (GeneID 34289)	1	-0.0348	-1.89	
93	Rbf (GeneID 31027)	1	-1.37		
94	Rsph1 (GeneID 34712)	1	-0.632	-0.514	
95	Gbeta5 (GeneID 31744)	1	0.283	-0.613	
96	Tsp42Eb + CG30160	1	0.11	-0.24	
97	Tsp42Eb + CG30160	2	-0.166	-0.456	
98	Set8 (GeneID 41743)	1	0.0451	0.468	
99	Mayo (GeneID 43678)	1	-0.214	-0.526	
100	baz (GeneID 32703)	1	-0.421	-0.0191	
101	Ctf4 (GeneID 36551)	1	-1.11	0.73	
102	fs(1)N (GeneID 45973)	1	0.495	-0.0388	
103	CG8543 (GeneID 38837)	1	0.398	0.331	
104	CG8543 (GeneID 38837)	2	0.757	-0.00956	
105	PCNA (GeneID 37290)	1	5.04	-3.54	

Only “droplet/nuclear area B-score, replicate 2”, for 12 of the entries above:
inaE (GeneID 32343) #1 = -0.561
inaE (GeneID 32343) #2 = 1.5
inaE (GeneID 32343) #3 = -1.1
inaE (GeneID 32343) #4 = -0.0166
bbx + waw #1 = 0.0245
bbx + waw #2 = -0.966
yki (GeneID 37851) = -1.72
spd-2 (GeneID 39850) = -0.55
mRpS14 (GeneID 117414) = 0.174
mars (GeneID 36498) = 0.337
Lhr (GeneID 36957) = -0.195
RpL7A (GeneID 31588) = 3.09
